Results on 10 compounds are retold here after the supplement of paper PMC4604168 (melanoma cell lines).

The other results are listed elsewhere or left out. Repeats are few or missing, and single values can be far off.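 Imaging used 1,536-well plates; nuclei positive for cleaved PARP by antibody were divided by total DNA-stained nuclei to yield the apoptosis fraction. Doses for screening kept most cells viable, and cell lines differ markedly in resting and induced cleaved-PARP levels.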

Assay in all cases: cleaved PARP positive nuclei fraction relative to DMSO control; melanoma cells; higher = more apoptosis
Holding throughout (details): library dose: low library concentration; 72 h

Assay [1] deals with MZ2-MEL.
Assay [2] deals with MeWo.
The subject of assay [3] is RPMI7951.
In assay [4] the test system is RVH-421.
The test system of assay [5] is SkMel28.
For assay [6], the system named is SkMel30.
Assay [7] relates to UACC62.
Assay [8] concerns WM115.
The subject of assay [9] is WM1716.
The test system of assay [10] is WM1745.
The subject of assay [11] is WM3526.
Assay [12] concerns WM3619.
For assay [13], the system named is WM451Lu.
In assay [14] the test system is SkMel5.
In assay [15] the test system is UACC257.

As to `CO[C@H]1C[C@@H]2CC[C@@H](C)[C@@](O)(O2)C(=O)C(=O)N2CCCC[C@H]2C(=O)O[C@H]([C@H](C)C[C@@H]2CC[C@@H](OCCO)[C@H](OC)C2)CC(=O)[C@H](C)/C=C(\C)[C@@H](O)[C@@H](OC)C(=O)[C@H](C)C[C@H](C)/C=C/C=C/C=C/1C` [everolimus] + CS(=O)(=O)CCNCc1ccc(-c2ccc3ncnc(Nc4ccc(OCc5cccc(F)c5)c(Cl)c4)c3c2)o1 [lapatinib] (first compound 0.02 µM, partner dose 0.8 µM), the “cleaved PARP positive nuclei fraction” value in [1] amounted to 239%; in assay [2] it was 80.4%; in assay [3], 206%; in assay [4], 268%; in assay [5], 1050%; in assay [6], 105%. Besides, the “cleaved PARP positive nuclei fraction” value was 551% in assay [7]; 206% in assay [8]; 113% in assay [9]; 110% in assay [10]; 382% in [11]; 105% in assay [12]. Moreover, the “cleaved PARP positive nuclei fraction” value in [13] worked out at 119%.
For the compound `CO[C@H]1C[C@@H]2CC[C@@H](C)[C@@](O)(O2)C(=O)C(=O)N2CCCC[C@H]2C(=O)O[C@H]([C@H](C)C[C@@H]2CC[C@@H](OCCO)[C@H](OC)C2)CC(=O)[C@H](C)/C=C(\C)[C@@H](O)[C@@H](OC)C(=O)[C@H](C)C[C@H](C)/C=C/C=C/C=C/1C` [everolimus] + O=C1NC(=O)/C(=C/c2ccc(-c3ccc(F)cc3O)o2)S1 [AS252424] (first compound 0.02 µM, partner dose 1 µM), the “cleaved PARP positive nuclei fraction” value in assay [1] was determined as 104%; in assay [2], 313%; in [3] it was 50.7%; in [4] it was 69.3%; in assay [5], 303%; in assay [6], 65.6%. Also, the “cleaved PARP positive nuclei fraction” value in [14] was found to be 64.2%; in [15], 189%; in [7], 92%; in assay [8] it was 108%; in [9], 68.7%; in assay [10] it was 101%. Further, the “cleaved PARP positive nuclei fraction” value amounted to 116% in assay [11], 137% in assay [12] and 66.4% in assay [13].
Turning to `CO[C@H]1C[C@@H]2CC[C@@H](C)[C@@](O)(O2)C(=O)C(=O)N2CCCC[C@H]2C(=O)O[C@H]([C@H](C)C[C@@H]2CC[C@@H](OCCO)[C@H](OC)C2)CC(=O)[C@H](C)/C=C(\C)[C@@H](O)[C@@H](OC)C(=O)[C@H](C)C[C@H](C)/C=C/C=C/C=C/1C` [everolimus] + Cn1nnc2c(C(N)=O)ncn2c1=O [temozolomide] (first compound 0.02 µM, partner dose 2 µM), the “cleaved PARP positive nuclei fraction” value is 33.7% in assay [1]; 104% in [2]; 91.4% in assay [3]; 103% in assay [4]; 114% in [5]; 32.6% in assay [6]. For the same compound, the “cleaved PARP positive nuclei fraction” value was found to be 133% in [7]; 60.7% in assay [8]; 45% in assay [9]; 133% in [10]; 204% in assay [11]; 159% in assay [12]. The “cleaved PARP positive nuclei fraction” value in assay [13] is 48.6%.
`CO[C@H]1C[C@@H]2CC[C@@H](C)[C@@](O)(O2)C(=O)C(=O)N2CCCC[C@H]2C(=O)O[C@H]([C@H](C)C[C@@H]2CC[C@@H](OCCO)[C@H](OC)C2)CC(=O)[C@H](C)/C=C(\C)[C@@H](O)[C@@H](OC)C(=O)[C@H](C)C[C@H](C)/C=C/C=C/C=C/1C` [everolimus] + CCN(CC)CCCCNc1ncc2cc(-c3cc(OC)cc(OC)c3)c(NC(=O)NC(C)(C)C)nc2n1 [PD173074] (first compound 0.02 µM, partner dose 0.1 µM): the “cleaved PARP positive nuclei fraction” value was found to be 104% in assay [1]; 109% in assay [2]; 146% in assay [3]; 100% in assay [4]; 714% in [5]; 32.6% in [6]. Also, the “cleaved PARP positive nuclei fraction” value in [14] turned out to be 346%; in assay [15], 221%; in [7], 246%; in assay [8], 165%; in [9], 66.3%; in assay [10] it was 93.1%. Besides, the figures for the “cleaved PARP positive nuclei fraction” value in assay [11], in assay [12] and in assay [13] were 102%, 247% and 62.1%, respectively.
Turning to `CO[C@H]1C[C@@H]2CC[C@@H](C)[C@@](O)(O2)C(=O)C(=O)N2CCCC[C@H]2C(=O)O[C@H]([C@H](C)C[C@@H]2CC[C@@H](OCCO)[C@H](OC)C2)CC(=O)[C@H](C)/C=C(\C)[C@@H](O)[C@@H](OC)C(=O)[C@H](C)C[C@H](C)/C=C/C=C/C=C/1C` [everolimus] + CC(C)(C)c1cnc(CSc2cnc(NC(=O)C3CCNCC3)s2)o1 [SNS-032] (first compound 0.02 µM, partner dose 0.01 µM), the “cleaved PARP positive nuclei fraction” value in assay [1] worked out at 118%; in assay [2], 74.5%; in assay [3], 62.8%; in assay [4], 37.5%; in assay [5], 43.1%; in [6], 106%. The “cleaved PARP positive nuclei fraction” value stood at 46.5% in [14]; 303% in assay [15]; 399% in assay [7]; 342% in [8]; 118% in assay [9]; 106% in assay [10]. Also, the “cleaved PARP positive nuclei fraction” value in assay [11] was determined as 178%; in assay [12] it was 127%; in [13], 185%.
For the compound `CO[C@H]1C[C@@H]2CC[C@@H](C)[C@@](O)(O2)C(=O)C(=O)N2CCCC[C@H]2C(=O)O[C@H]([C@H](C)C[C@@H]2CC[C@@H](OCCO)[C@H](OC)C2)CC(=O)[C@H](C)/C=C(\C)[C@@H](O)[C@@H](OC)C(=O)[C@H](C)C[C@H](C)/C=C/C=C/C=C/1C` [everolimus] + Cc1cc([N+](=O)[O-])ccc1NS(=O)(=O)c1cc(Cl)ccc1Cl [FH535] (first compound 0.02 µM, partner dose 1 µM), the “cleaved PARP positive nuclei fraction” value in assay [1] worked out at 227%; in assay [2] it was 168%; in assay [3], 105%; in [4] it was 42.6%; in assay [5], 1160%; in assay [6], 113%. Moreover, the “cleaved PARP positive nuclei fraction” value stood at 77.6% in [14]; 94.4% in assay [15]; 384% in assay [7]; 336% in [8]; 136% in [9]; 110% in [10]. In addition, the “cleaved PARP positive nuclei fraction” value in assay [11] stood at 111%; in [12], 136%; in [13], 40.6%.
As for `CO[C@H]1C[C@@H]2CC[C@@H](C)[C@@](O)(O2)C(=O)C(=O)N2CCCC[C@H]2C(=O)O[C@H]([C@H](C)C[C@@H]2CC[C@@H](OCCO)[C@H](OC)C2)CC(=O)[C@H](C)/C=C(\C)[C@@H](O)[C@@H](OC)C(=O)[C@H](C)C[C@H](C)/C=C/C=C/C=C/1C` [everolimus] + C=CCn1c(=O)c2cnc(Nc3ccc(N4CCN(C)CC4)cc3)nc2n1-c1cccc(C(C)(C)O)n1 [MK1775] (first compound 0.02 µM, partner dose 0.02 µM), the “cleaved PARP positive nuclei fraction” value came to 222% in assay [1]; 47.9% in assay [2]; 120% in [3]; 65.8% in [4]; 207% in assay [5]; 256% in assay [6]. For the same compound, the “cleaved PARP positive nuclei fraction” value in [14] amounted to 200%; in assay [15], 225%; in [7] it was 298%; in assay [8] it was 257%; in assay [9], 153%; in assay [10] it was 128%. Besides, the “cleaved PARP positive nuclei fraction” value in assay [11] is 92.9%; in assay [12], 184%; in [13] it was 233%.
As to `CO[C@H]1C[C@@H]2CC[C@@H](C)[C@@](O)(O2)C(=O)C(=O)N2CCCC[C@H]2C(=O)O[C@H]([C@H](C)C[C@@H]2CC[C@@H](OCCO)[C@H](OC)C2)CC(=O)[C@H](C)/C=C(\C)[C@@H](O)[C@@H](OC)C(=O)[C@H](C)C[C@H](C)/C=C/C=C/C=C/1C` [everolimus] + COc1cc2c(Oc3ccc4[nH]c(C)cc4c3F)ncnc2cc1OCCCN1CCCC1 [cediranib] (first compound 0.02 µM, partner dose 0.4 µM), the “cleaved PARP positive nuclei fraction” value in assay [1] is 117%; in assay [2] it was 88.8%; in [3], 285%; in assay [4], 220%; in assay [5], 149%; in assay [6], 396%. In addition, the “cleaved PARP positive nuclei fraction” value worked out at 169% in [14]; 178% in assay [15]; 218% in [7]; 121% in assay [8]; 98% in [9]; 107% in [10]. For the same compound, the “cleaved PARP positive nuclei fraction” value in assay [11] came out at 174%; in assay [12] it was 136%; in [13], 431%.
In the case of `CO[C@H]1C[C@@H]2CC[C@@H](C)[C@@](O)(O2)C(=O)C(=O)N2CCCC[C@H]2C(=O)O[C@H]([C@H](C)C[C@@H]2CC[C@@H](OCCO)[C@H](OC)C2)CC(=O)[C@H](C)/C=C(\C)[C@@H](O)[C@@H](OC)C(=O)[C@H](C)C[C@H](C)/C=C/C=C/C=C/1C` [everolimus] + COc1cc(N2CCC(N3CCN(C)CC3)CC2)ccc1Nc1ncc(Cl)c(Nc2ccccc2S(=O)(=O)C(C)C)n1 [NVP-TAE684] (first compound 0.02 µM, partner dose 0.08 µM), the “cleaved PARP positive nuclei fraction” value in assay [1] amounted to 93.4%; in assay [2], 105%; in [3], 207%; in assay [4], 159%; in [5], 309%; in assay [6], 390%. For the same compound, the “cleaved PARP positive nuclei fraction” value came to 92.4% in [14]; 170% in [15]; 216% in [7]; 138% in assay [8]; 89.2% in [9]; 119% in [10]. Also, the “cleaved PARP positive nuclei fraction” value in assay [11] was determined as 128%; in assay [12] it was 193%; in assay [13], 113%.
On to `CO[C@H]1C[C@@H]2CC[C@@H](C)[C@@](O)(O2)C(=O)C(=O)N2CCCC[C@H]2C(=O)O[C@H]([C@H](C)C[C@@H]2CC[C@@H](OCCO)[C@H](OC)C2)CC(=O)[C@H](C)/C=C(\C)[C@@H](O)[C@@H](OC)C(=O)[C@H](C)C[C@H](C)/C=C/C=C/C=C/1C` [everolimus] + C[C@]1(c2nc3c(C(N)=O)cccc3[nH]2)CCCN1 [Veliparib] (first compound 0.02 µM, partner dose 1.4 µM), for which the “cleaved PARP positive nuclei fraction” value in assay [1] amounted to 80.5%; in [2], 151%; in assay [3], 73.4%; in assay [4], 94.1%; in [5], 70.6%; in assay [6] it was 35.6%. Also, the “cleaved PARP positive nuclei fraction” value in [7] worked out at 110%; in [8], 248%; in assay [9], 91.7%; in assay [10], 133%; in assay [11], 99.7%; in [12] it was 107%. Also, the “cleaved PARP positive nuclei fraction” value in [13] is 50.2%.
